Test results as given in the supplement of paper PMC12819154, “High-throughput peptide-centric local stability assay extends protein–ligand identification to membrane proteins, tissues and bacteria” (Nature Structural & Molecular Biology, 2025).
Some of the results follow. Small differences around the control level are noise.

The chains behind the UniProt entries cited, without tags or fusion partners. Where a name states a change or a piece, a line headed by the entry shows the natural chain unless it says otherwise.
UniProt O35601: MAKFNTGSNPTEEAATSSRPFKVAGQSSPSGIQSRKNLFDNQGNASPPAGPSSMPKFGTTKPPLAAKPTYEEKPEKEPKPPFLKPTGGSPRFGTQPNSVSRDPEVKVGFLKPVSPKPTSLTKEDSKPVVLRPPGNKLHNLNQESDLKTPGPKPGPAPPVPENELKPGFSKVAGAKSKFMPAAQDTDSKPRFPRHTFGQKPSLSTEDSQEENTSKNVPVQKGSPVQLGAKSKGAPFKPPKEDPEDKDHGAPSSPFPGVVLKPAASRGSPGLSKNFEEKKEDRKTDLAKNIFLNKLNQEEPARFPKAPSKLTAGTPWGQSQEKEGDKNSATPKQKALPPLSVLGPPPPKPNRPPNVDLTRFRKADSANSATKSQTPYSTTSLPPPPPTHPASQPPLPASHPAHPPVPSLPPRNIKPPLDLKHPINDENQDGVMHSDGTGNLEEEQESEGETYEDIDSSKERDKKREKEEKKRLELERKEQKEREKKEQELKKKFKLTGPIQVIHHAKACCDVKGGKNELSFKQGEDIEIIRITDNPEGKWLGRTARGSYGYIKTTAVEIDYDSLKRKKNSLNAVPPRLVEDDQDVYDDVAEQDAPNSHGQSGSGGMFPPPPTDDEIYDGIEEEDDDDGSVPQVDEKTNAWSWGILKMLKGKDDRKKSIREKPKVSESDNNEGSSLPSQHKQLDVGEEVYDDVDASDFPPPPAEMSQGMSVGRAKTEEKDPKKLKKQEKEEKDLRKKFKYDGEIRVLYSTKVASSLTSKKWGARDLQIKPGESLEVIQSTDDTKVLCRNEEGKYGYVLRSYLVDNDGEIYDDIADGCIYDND
UniProt O35711: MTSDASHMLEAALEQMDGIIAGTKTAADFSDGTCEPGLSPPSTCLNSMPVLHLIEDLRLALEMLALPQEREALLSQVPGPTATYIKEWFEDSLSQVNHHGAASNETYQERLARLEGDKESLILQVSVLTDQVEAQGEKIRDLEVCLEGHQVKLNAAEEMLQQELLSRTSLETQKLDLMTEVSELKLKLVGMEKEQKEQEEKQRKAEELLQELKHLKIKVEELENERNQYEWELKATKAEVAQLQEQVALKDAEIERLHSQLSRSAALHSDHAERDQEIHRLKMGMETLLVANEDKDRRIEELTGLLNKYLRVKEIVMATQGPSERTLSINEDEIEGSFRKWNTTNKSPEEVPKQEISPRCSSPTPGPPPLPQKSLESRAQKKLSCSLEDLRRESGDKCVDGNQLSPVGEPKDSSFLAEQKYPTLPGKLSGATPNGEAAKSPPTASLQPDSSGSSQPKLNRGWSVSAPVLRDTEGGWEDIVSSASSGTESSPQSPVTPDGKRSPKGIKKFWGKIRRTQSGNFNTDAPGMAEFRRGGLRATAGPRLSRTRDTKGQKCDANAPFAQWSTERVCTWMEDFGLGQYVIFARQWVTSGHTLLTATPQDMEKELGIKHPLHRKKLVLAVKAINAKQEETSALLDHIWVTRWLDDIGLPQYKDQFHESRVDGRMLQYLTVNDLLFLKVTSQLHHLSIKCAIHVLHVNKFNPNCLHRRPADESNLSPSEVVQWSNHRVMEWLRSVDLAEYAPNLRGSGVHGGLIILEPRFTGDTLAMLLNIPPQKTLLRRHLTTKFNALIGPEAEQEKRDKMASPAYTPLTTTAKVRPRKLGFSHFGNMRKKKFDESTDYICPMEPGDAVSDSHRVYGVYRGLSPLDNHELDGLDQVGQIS
UniProt O35143: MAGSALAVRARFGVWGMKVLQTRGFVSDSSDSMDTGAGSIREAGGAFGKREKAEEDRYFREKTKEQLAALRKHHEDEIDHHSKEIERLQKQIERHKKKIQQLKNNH
UniProt O55029: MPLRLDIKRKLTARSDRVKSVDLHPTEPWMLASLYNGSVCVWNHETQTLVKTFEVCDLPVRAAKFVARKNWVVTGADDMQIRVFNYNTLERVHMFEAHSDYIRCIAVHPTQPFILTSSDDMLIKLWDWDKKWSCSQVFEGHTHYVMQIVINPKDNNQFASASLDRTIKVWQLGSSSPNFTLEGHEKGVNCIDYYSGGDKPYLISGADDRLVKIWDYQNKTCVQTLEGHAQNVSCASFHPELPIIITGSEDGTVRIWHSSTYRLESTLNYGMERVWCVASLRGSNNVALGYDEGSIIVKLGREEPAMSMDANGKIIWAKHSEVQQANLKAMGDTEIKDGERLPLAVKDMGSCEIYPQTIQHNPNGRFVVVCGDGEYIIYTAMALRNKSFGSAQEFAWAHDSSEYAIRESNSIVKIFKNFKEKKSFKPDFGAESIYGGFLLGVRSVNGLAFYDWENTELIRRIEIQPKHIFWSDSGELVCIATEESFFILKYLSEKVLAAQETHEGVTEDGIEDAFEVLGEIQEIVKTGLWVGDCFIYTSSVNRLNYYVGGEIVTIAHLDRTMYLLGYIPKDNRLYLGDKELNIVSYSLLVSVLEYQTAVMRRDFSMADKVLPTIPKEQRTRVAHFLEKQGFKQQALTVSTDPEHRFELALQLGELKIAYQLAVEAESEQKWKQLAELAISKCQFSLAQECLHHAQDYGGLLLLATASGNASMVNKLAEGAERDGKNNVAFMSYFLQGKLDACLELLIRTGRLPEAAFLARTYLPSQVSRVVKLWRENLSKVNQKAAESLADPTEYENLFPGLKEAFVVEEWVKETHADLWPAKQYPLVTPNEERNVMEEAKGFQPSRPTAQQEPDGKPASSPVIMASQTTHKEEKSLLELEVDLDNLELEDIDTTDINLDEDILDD
UniProt O54984: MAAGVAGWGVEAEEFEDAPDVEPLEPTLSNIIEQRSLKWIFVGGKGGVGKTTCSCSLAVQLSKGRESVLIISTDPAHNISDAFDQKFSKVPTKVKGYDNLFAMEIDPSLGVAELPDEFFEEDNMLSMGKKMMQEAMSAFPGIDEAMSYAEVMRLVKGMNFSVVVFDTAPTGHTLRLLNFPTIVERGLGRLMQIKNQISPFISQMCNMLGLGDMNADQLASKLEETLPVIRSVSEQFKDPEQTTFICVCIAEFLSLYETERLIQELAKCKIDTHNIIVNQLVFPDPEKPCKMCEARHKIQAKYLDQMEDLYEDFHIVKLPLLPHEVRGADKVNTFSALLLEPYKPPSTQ
UniProt O88746, whole entry: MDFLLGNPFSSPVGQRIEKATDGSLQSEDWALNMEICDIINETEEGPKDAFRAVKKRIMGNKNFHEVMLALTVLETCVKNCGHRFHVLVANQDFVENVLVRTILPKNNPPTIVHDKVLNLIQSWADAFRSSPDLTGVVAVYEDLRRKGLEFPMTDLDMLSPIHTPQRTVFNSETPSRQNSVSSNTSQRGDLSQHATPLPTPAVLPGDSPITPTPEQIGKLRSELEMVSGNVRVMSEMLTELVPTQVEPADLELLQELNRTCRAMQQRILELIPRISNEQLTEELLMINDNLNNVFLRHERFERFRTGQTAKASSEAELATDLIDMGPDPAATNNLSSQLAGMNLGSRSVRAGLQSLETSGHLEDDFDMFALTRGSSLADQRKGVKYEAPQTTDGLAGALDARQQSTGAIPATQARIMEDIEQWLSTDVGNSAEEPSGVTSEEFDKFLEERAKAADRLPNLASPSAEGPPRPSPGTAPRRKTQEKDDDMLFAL
UniProt O70311: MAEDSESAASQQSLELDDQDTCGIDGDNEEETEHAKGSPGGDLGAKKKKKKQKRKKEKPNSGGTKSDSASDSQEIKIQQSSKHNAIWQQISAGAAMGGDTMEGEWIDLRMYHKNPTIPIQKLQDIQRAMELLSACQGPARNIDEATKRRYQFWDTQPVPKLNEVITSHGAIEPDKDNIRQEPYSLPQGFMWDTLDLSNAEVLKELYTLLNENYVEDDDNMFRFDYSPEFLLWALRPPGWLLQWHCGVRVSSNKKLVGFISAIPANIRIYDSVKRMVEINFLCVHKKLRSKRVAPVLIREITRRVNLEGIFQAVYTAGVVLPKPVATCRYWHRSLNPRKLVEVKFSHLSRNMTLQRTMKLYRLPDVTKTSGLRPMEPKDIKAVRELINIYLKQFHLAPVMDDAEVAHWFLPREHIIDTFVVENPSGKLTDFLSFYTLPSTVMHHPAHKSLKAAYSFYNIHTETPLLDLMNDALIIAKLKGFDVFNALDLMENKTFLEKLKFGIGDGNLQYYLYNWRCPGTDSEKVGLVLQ
UniProt O35841: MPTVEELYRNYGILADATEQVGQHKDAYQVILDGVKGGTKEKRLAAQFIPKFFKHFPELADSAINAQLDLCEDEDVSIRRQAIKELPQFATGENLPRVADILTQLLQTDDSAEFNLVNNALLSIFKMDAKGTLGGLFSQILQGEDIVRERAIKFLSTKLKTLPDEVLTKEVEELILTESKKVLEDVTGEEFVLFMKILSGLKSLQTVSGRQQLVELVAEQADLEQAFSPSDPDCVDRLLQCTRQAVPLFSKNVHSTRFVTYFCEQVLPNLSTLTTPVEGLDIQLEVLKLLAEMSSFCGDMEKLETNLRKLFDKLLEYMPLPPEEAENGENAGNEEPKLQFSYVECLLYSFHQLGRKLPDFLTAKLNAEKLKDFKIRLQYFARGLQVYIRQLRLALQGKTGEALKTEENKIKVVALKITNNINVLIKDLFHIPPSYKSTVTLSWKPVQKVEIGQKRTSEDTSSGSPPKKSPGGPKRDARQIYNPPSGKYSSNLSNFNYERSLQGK
UniProt O88735: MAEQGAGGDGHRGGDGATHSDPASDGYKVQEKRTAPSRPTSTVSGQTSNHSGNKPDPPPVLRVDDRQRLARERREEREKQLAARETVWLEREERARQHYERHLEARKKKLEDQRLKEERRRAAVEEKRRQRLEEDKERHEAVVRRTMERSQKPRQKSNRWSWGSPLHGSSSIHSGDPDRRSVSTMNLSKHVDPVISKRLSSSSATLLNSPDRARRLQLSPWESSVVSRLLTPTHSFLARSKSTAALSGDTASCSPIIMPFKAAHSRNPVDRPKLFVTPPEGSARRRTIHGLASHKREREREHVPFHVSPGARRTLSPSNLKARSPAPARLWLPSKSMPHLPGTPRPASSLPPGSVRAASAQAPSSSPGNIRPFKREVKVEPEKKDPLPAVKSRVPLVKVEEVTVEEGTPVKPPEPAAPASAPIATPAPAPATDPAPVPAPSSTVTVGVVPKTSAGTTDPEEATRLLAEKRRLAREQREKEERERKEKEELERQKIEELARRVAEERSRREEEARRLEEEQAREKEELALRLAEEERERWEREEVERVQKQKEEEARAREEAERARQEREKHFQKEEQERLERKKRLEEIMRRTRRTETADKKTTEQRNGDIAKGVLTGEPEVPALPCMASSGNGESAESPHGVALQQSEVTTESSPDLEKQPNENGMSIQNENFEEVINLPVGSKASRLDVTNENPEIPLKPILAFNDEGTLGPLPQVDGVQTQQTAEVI
UniProt O55242, whole entry: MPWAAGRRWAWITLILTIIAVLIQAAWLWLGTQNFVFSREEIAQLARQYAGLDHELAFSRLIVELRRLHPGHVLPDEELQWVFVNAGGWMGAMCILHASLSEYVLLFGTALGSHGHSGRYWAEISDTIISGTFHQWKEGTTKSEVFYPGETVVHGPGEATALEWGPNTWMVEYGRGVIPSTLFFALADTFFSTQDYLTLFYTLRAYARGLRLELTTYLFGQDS
UniProt P01680, whole entry: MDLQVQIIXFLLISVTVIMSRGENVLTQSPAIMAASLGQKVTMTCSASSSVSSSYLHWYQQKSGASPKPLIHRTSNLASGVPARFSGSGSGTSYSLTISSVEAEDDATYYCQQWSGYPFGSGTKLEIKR
UniProt O35405: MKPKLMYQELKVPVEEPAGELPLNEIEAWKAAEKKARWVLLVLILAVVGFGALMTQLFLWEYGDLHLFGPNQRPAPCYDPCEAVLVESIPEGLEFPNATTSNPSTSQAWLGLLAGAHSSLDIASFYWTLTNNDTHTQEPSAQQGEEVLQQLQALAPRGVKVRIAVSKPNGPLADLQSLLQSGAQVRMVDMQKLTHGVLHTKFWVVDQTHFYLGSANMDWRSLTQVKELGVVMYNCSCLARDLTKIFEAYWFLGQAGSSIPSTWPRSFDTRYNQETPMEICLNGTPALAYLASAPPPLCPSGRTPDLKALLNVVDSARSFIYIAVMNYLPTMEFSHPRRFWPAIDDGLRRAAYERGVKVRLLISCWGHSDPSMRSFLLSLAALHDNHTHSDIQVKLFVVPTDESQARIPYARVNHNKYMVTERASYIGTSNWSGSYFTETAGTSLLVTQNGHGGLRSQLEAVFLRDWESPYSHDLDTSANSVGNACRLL
UniProt O35453: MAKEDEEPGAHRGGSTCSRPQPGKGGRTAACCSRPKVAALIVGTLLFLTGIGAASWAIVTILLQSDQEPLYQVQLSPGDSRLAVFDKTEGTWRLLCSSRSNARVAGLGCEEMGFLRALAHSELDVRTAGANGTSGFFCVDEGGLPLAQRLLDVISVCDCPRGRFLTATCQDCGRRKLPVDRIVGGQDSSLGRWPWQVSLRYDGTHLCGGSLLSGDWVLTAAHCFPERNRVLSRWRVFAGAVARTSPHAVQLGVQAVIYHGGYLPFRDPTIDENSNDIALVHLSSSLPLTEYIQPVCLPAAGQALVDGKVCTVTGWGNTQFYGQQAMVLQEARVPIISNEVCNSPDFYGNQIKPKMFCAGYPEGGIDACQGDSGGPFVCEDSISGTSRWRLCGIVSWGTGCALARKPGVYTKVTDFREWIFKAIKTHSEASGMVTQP

compound: CN[C@@H]1C[C@H]2O[C@@](C)([C@@H]1OC)n1c3ccccc3c3c4c(c5c6ccccc6n2c5c31)C(=O)NC4 [staurosporine]; experiment: log2 fold change of pooled soluble protein (PISA), ligand vs vehicle (log2 ratio); higher = more thermally stabilized; settings: ligand concentration: 20 uM; assay format: PISA pool 52.9/55.5/58.6 C

Target	log2 fold change of pooled soluble protein
UniProt O35601	-0.0501
UniProt O35711	0.0648
UniProt O35143	-0.148
UniProt O55029	-0.01
UniProt O89053	-0.0541
UniProt O54890	0.102
UniProt O54984	-0.155
UniProt O08788	-0.0466
UniProt O88746	0.0415
UniProt O88520	-0.00787
P01754;P06328	0.165
UniProt O70311	-0.031
UniProt O88447	0.373
UniProt O09111	-0.247
UniProt O35841	0.0954
UniProt O08600	-0.2
UniProt O88735	-0.136
UniProt O55106	-0.212
UniProt O35643	0.0274

Target	log2 fold change of pooled soluble protein
UniProt O54786	-0.0316
UniProt O88544	0.0529
UniProt O35930	-0.102
UniProt O55242	-0.00593
UniProt O08997	0.135
UniProt O88342	0.0171
UniProt O88736	0.141
UniProt P01680	0.16
UniProt O54749	0.0308
UniProt O35660	0.00568
UniProt O35405	-0.112
UniProt O88271	-0.0515
UniProt O88531	-0.0988
P01868;P01869	-0.377
UniProt O35453	-0.114
UniProt O55229	-0.05
UniProt O88456	0.0164
UniProt O09000	-0.0733

Reformatted as comma-separated lines: entries from further up.
Target,log2 fold change of pooled soluble protein
UniProt O35930,-0.102
UniProt O88736,0.141
